The campaign covered roughly 320,000 compounds. About 2,100 (0.66%) were called active. This list was built around the results that the source calls inconclusive (neither active nor inactive); the mix of calls is not that of the screen. The call rests on the fitted dose curve; in most records, active means well fitted inhibition curve with a large enough effect in the signal ratio, with a control signal flat (not every such curve was filed as active); inconclusive means small, poorly fitted or top-dose-only effect, or effect the other way, or a change in a side signal; inactive means flat fitted curve, though single readings scatter; the % refers to the signal ratio. A potency beside an inconclusive call is a rough fit, not a confirmed value.
assay: qHTS Assay for Lipid Storage Modulators in Drosophila S3 Cells; conditions: BODIPY lipid droplet fluorescence, 18-24 h, cells fed with added oleic acid; lipid storage change, negative = inhibition: at 46.1 µM (top of the series) unless noted
In short: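 Drosophila S3 cells loaded with oleic acid (400 uM, as added) and compounds at several concentrations; lipid droplets imaged by 488-nm laser-scanning cytometry, 500–530 nm intensity and object ratio to cell channel. Percent activity normalized to 20 uM Triacsin C.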
On the % scale 0 is the no-effect control and ±100 the full control effect; potency means the concentration at half of the fitted maximal effect.

Lipid storage change, negative = inhibition, inactive:
COCCNC(=S)Nc1ccc(S(=O)(=O)Nc2ncccn2)cc1 6.38%

Lipid storage change, negative = inhibition, inconclusive:
COc1cccc(C(=O)N2CCOCC2)c1OC -4.75%
Cc1ccc(N(C)S(=O)(=O)c2cccc(C(=O)Nc3nc4ccccc4[nH]3)c2)cc1 -24.9%
Nc1cc(C(F)(F)F)ccc1OCC1CCCO1 (stereo unspecified) 13%
O=C(O)COc1ccc2occ(C(=O)c3ccccc3)c2c1 -6.38%
COC(=O)NNC(=S)NCc1ccccc1 -13.3%
Cc1ccc2oc(=O)c(-c3ccc(O)cc3)c(C)c2c1 -43%
CCc1nnc(NC(=O)Cc2sc(C)nc2-c2ccc(C)cc2)s1 8.72%
O=C(COC(=O)CNC(=O)c1ccc(Cl)cc1)Nc1ncc(C(F)(F)F)cc1Cl -8.95%
O=c1cc(N2CCOCC2)[nH]c(=O)n1-c1ccc(Br)cc1 -14.2%
O=C(NCc1ccccn1)c1ccc(NS(=O)(=O)c2cccc(Cl)c2)cc1 -22.3%
CCCc1ccc2oc(C(=O)N3CCC[C@H]3CO)c(C)c2c1 13.4%
CCOC(=O)C1CCCN(C(=O)c2sc3nc(C)nc(N4CCOCC4)c3c2C)C1 (stereo unspecified) -20.3%
Cc1nc(SCC(=O)Nc2ccc(Cl)cc2[N+](=O)[O-])nc(C)c1C 15.7%
CCN(CC(=O)Nc1ccc(OC)cc1)C(=O)CN1C(=O)NC(C)(c2ccc3ccccc3c2)C1=O (stereo unspecified) -19.4%
Cn1cc(-c2ccccc2)cc(C#N)c1=O -7.74%
CCOC(=O)NC(=O)CSc1nc2ccc(C)cc2[nH]1 -18.6%
O=C(CN1C(=O)NC(Cc2ccccc2)(Cc2ccccc2)C1=O)NCC1CCCCC1 148%
Cn1c(COc2ccc3ccccc3c2)nnc1SCC(=O)O -154%
Cn1c(=O)c2c(ncn2CCOc2cccc(Br)c2)n(C)c1=O -98.4%
O=C(CSc1ccccn1)Nc1nc2ccccc2s1 20.8%
O=C(COC(=O)c1ccc([N+](=O)[O-])o1)c1ccccc1 -21.1%
CCc1ccc(O)c(-c2cc(C(=O)Nc3cccnc3)[nH]n2)c1 25.9%
O=C(Cc1ccc(Br)cc1)N1CCN(c2ccccc2)CC1 52%
c1ccc(-c2csc(N3CCc4ccccc4C3)n2)cc1 98%
Cc1ccc(N(C(=O)C(F)(F)F)C(C(=O)NC2CCCCC2)c2cccs2)cc1C (stereo unspecified) 12.7%
O=C(Nc1ccc(Oc2cccc(C(F)(F)F)c2)nc1)c1ccccc1 -37.1%
COC(=O)C(CC(C(=O)OC)C(=O)OC)C(=O)OC 24.7%
CN1CCn2c1nc(N1CCCCC1)nc2=O -9.15%
CCOC(=O)C1CCN(C(=O)COc2ccc(N(C)S(=O)(=O)c3cccs3)cc2)CC1 12.3%
C#CCSc1nnc(-c2ccc(O)cc2)o1 9.06%
O=C(OCc1nnc(-c2ccc(Cl)cc2)o1)c1ccncc1 49.9%
COc1ccc(S(=O)(=O)NCCSC(C)(C)C)cc1Cl 87.5%
CCOC(=O)C(C)Oc1ccc2c(C)cc(=O)oc2c1C(C)=O (stereo unspecified) -56.4%
CCOC(=O)c1c(NC(=O)Cn2nc(C(F)(F)F)cc2C)sc2c1CCC2 14.5%
O=C(c1ccc2ccccc2c1)N1CCN(c2ccccn2)CC1 29.1%
COc1ccc(C(=O)CSc2nnc(-c3cnccn3)n2Cc2ccco2)cc1 -4.37% [at 9.22 µM]

Potency, inconclusive:
C=CCn1nc([N+](=O)[O-])nc1Sc1cccc2cccnc12 32.6 µM [falling, single point]
COCc1cc(C)n(CC(=O)N/N=C/c2ccc(-c3ccc(Cl)c(C(=O)O)c3)o2)c(=O)c1C#N 0.116 µM [falling, full curve, poor fit]
Cc1oc(-c2ccccc2F)nc1CS(=O)CC(=O)NCc1ccccn1 (stereo unspecified) 29.1 µM [activator, single point]
O=C(CN1C(=O)CCOc2ccccc21)Nc1cccc(S(=O)(=O)N2CCOCC2)c1 0.82 µM [falling, full curve, poor fit]
O=C(CSC1=Nc2ccccc2C2=NC(c3ccccc3)C(=O)N12)NC1CCCCC1 (stereo unspecified) 1.84 µM [activator, partial curve, poor fit]
CC(=O)c1ccc(N2CCN(S(=O)(=O)c3ccc4c(c3)CC(C)N4C(=O)C3CC3)CC2)cc1 (stereo unspecified) 29.1 µM [falling, single point]
O=C(NCc1ccco1)c1nc2c(nnn2Cc2ccccc2Cl)c(=O)[nH]1 16.4 µM [falling, single point]
Cc1c(NC(=S)/C=C2\N(C)c3ccccc3C2(C)C)c(=O)n(-c2ccccc2)n1C 29.1 µM [falling, single point]
COc1cc(NC(=O)COc2ccc(Cl)cc2)ccc1-c1cc2ccccc2oc1=O 1.64 µM [activator, full curve]
O=C(NC1CC2CCCC(C1)N2C(=O)Nc1ccccc1)c1ccccc1 (stereo unspecified) 9.2 µM [activator, single point]
CC(C)(C)C(=O)Nc1nc(=S)ss1 29.1 µM [falling, single point]
CN(C(=O)CCl)C1CCCc2ccccc21 (stereo unspecified) 0.58 µM [rising, single point]
COCCCNC(=O)C(F)(F)C(F)(F)C(=O)NCCCOC 1.64 µM [falling, single point]

A stretch of the results above, for reference:
Potency, inconclusive:
Cc1c(NC(=S)/C=C2\N(C)c3ccccc3C2(C)C)c(=O)n(-c2ccccc2)n1C 29.1 µM [falling, single point]
COc1cc(NC(=O)COc2ccc(Cl)cc2)ccc1-c1cc2ccccc2oc1=O 1.64 µM [activator, full curve]
O=C(NC1CC2CCCC(C1)N2C(=O)Nc1ccccc1)c1ccccc1 (stereo unspecified) 9.2 µM [activator, single point]

Next part.

Potency, active:
CC(=O)Nc1ccc(S(=O)(=O)Nc2nnc(C3CCCCC3)s2)cc1 3.66 µM

Source: PubChem BioAssay AID2685 (National Center for Advancing Translational Sciences (NCATS), 2010)
